The full ranking holds about 2,300 compounds; the median of “plate-normalized OD600 growth (mean of duplicates)” is about 0.29, and the lowest 2% start at about 0.22. The list shows a part of the results.
Tested on: Escherichia coli BW25113
Assay: plate-normalized OD600 growth (mean of duplicates) (OD600 (normalized)); higher = more growth (less inhibition)
Conditions: 10 µM
Procedure: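 E. coli BW25113 in LB (100 µl, 96-well, no shaking) was exposed to 10 µM of each compound from a ~30,000-member library and grown at 37°C for 24 h or 15°C for 48 h, in duplicate. Growth was read as OD600 and the duplicate ODs were normalized across screening plates to correct plate-to-plate variation. Hits were >3σ below the mean OD600 at 15°C and <2σ below the mean at 37°C.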

SMILES | plate-normalized OD600 growth (temperature: 15°C, 48 h) | plate-normalized OD600 growth (temperature: 37°C, 24 h)
CN(C)c1ccc(C=Nc2cc[c-]cc2)cc1.CN(C)c1ccc(C=Nc2cc[c-]cc2)cc1.[Cu+2] | 0.253 | 0.622
COc1ccc(/C=C2\CC/C(=C\c3ccc(OC)c(OC)c3)C2=O)cc1OC | 0.235 | 0.63
Cc1nnsc1C(=O)Nc1ccc(CN2CCS(=O)(=O)CC2)cc1 | 0.244 | 0.614
Cc1cccc2cc[nH]c12 | 0.262 | 0.623
COc1ccc(CCN2C(=O)C(O)=C(C(=O)c3cccs3)C2c2ccccc2F)cc1OC (stereo unspecified) | 0.248 | 0.619
Cc1cc(C(=O)O)ccc1-n1c(C)cc(C=Nc2ccc(C#N)cc2)c1C | 0.24 | 0.619
C/C(=N/O)c1ccn(S(=O)(=O)c2ccc(Cl)cc2)c1 | 0.241 | 0.627
CC(C)COc1ccc(C2NC(=O)NC2=O)cc1 (stereo unspecified) | 0.25 | 0.618
Cc1ccc2cc(C)c(NCc3cccnc3)nc2c1 | 0.237 | 0.605
CCOC(=O)c1ccc(-n2nnnc2C(c2ccc(Cl)cc2Cl)N2CCOCC2)cc1 (stereo unspecified) | 0.241 | 0.645
COC(=O)C1=C(C)C(c2ccc(OC)cc2)NC(=O)N1 (stereo unspecified) | 0.27 | 0.628
O=C(NN1C(=O)c2ccc(C(=O)c3cccc([N+](=O)[O-])c3)cc2C1=O)c1ccncc1 | 0.253 | 0.632
CC(C)(C)C1=CC(=O)C=C(C(C)(C)C)C1=O | 0.243 | 0.621
COc1cc(/C=c2/sc3n(c2=O)C(c2c(OC)ccc4ccccc24)C(C(C)=O)=C(C)N=3)cc(OC)c1OC (stereo unspecified) | 0.254 | 0.616
CCN(CC)c1ccc(C2C(C(=O)OC3CCCCC3)=C(C)NC3=C2C(=O)CC(c2ccc(Cl)cc2)C3)cc1 (stereo unspecified) | 0.238 | 0.614
Nc1c(C(=O)c2ccc(Br)cc2)sc2nc(-c3ccccc3)cc(-c3ccccc3)c12 | 0.256 | 0.621
CC(=O)C1=C(O)C(=O)N(Cc2ccccc2)C1c1ccc(Cl)cc1 (stereo unspecified) | 0.248 | 0.622
CCc1ccc(NC(=O)CSc2nnc3n(N)cnn23)cc1 | 0.238 | 0.609
O=C1C=C(Sc2ccc([N+](=O)[O-])cc2)C(=O)c2ccccc21 | 0.249 | 0.609
O=c1[nH]c(-c2cn[nH]c2-c2ccc(F)cc2)nc2sc3c(c12)CCCC3 | 0.237 | 0.637
COc1cc([N+](=O)[O-])c(OC)cc1SCC(=O)NNC(=O)c1cc(OC)c(OC)c(OC)c1 | 0.224 | 0.614
COc1ccc(NC(=O)c2cc(C(F)(F)F)cc(C(F)(F)F)c2)cn1 | 0.239 | 0.59
O=C(/C=C/c1ccccc1)Oc1ccc(-c2cnc3ccccc3n2)cc1 | 0.253 | 0.632
C/C(=N\N=C(/C)c1nnn(-c2nonc2N)c1C)c1ccc(Cl)cc1 | 0.245 | 0.616

SMILES | plate-normalized OD600 growth (temperature: 15°C, 48 h) | plate-normalized OD600 growth (temperature: 37°C, 24 h)
COC(=O)C1=CN(CC2CCCO2)C=C(C(=O)OC)C1c1ccc(C)s1 (stereo unspecified) | 0.257 | 0.632
CCCCCCCCCC(=O)Oc1ccc(C)cc1-n1nc2ccccc2n1 | 0.239 | 0.603
COC(=O)c1ccc(C(=O)OC)nc1 | 0.268 | 0.653
COc1cc(C)cc(C(=O)O)c1NC(=O)C(C)(C)C | 0.226 | 0.647
C=CCn1c2ccccc2c2nnc(SCC(=O)Nc3ncccn3)nc21 | 0.245 | 0.599
COc1ccccc1N1C(=O)C=C(c2ccc(Cl)cc2)C1=O | 0.26 | 0.628
Cc1ccc2nc(NC(=O)C3CCCN3C(=O)Oc3ccccc3)sc2c1 (stereo unspecified) | 0.258 | 0.648
CSC(=NC#N)N1CCN(c2ccc([N+](=O)[O-])cn2)CC1 | 0.244 | 0.644
CCCC(C)c1ccc(O)c(N=Cc2c(C)c(Cl)c(C)c([N+](=O)[O-])c2O)c1 (stereo unspecified) | 0.247 | 0.613
Nc1nnc(Cc2ccc([N+](=O)[O-])cc2)s1 | 0.249 | 0.616
CCOc1ccc(-c2[nH]nc3c2C2(C(=O)Nc4ccc(C)c(Br)c42)C(C#N)=C(N)O3)cc1 (stereo unspecified) | 0.245 | 0.6
CC(C)(C)OC(=O)N1CCC(C(N)=O)CC1 | 0.242 | 0.616
O=C(c1ccco1)N1CCC(c2ccccc2)C1 (stereo unspecified) | 0.201 | 0.642
O=C(O)/C=C/c1ccc(S(=O)(=O)NN2C(=O)/C(=C/c3ccco3)N=C2c2ccccc2)cc1 | 0.252 | 0.61
CC(=O)c1csc(-c2ccc(C(F)(F)F)cc2)n1 | 0.253 | 0.622
O=C1CC2(CCCC2)C(=O)N1CCNc1nccc(C(F)(F)F)n1 | 0.261 | 0.637
COc1cc(OC)cc(-c2nc(-c3nonc3N)no2)c1 | 0.238 | 0.661
CCCCCCOc1cccc(N2C(=O)C(=O)C(=C(O)c3ccccc3)C2c2ccc(C(=O)OC)cc2)c1 (stereo unspecified) | 0.239 | 0.628
NC(=S)c1ccc2nonc2c1 | 0.253 | 0.612
CCc1ccc(/C(C)=N/NC(=O)CNC(=O)c2ccc(Cl)cc2)cc1 | 0.25 | 0.616
CCCCOC(=O)c1ccc(NC(=O)Nc2ccc(Cl)c(Cl)c2)cc1 | 0.254 | 0.621
N#Cc1nccnc1Sc1ccc(Cl)cc1 | 0.242 | 0.599
COc1ccc(N=NC(C(=N)N)C(N)=O)cc1 (stereo unspecified) | 0.235 | 0.652
CS/C(Nc1ccc(Br)cc1)=C(/C(=O)c1ccc(Br)cc1)n1ccnc1 | 0.249 | 0.606

SMILES | plate-normalized OD600 growth (temperature: 15°C, 48 h) | plate-normalized OD600 growth (temperature: 37°C, 24 h)
O=C(N/N=C/c1ccc(OCc2ccccc2)cc1)C(=O)NC1CC1 | 0.258 | 0.637
COc1ccc(OC)c(S(=O)(=O)n2c([N+](=O)[O-])cnc2C)c1 | 0.255 | 0.612
O=C1c2ccccc2C(=O)N1CN1CCC(O)(c2ccc(Cl)cc2)CC1 | 0.253 | 0.614
Nc1c(C(=O)c2ccc(Br)cc2)sc2nc(-c3cccs3)cc(C(F)(F)F)c12 | 0.142 | 0.578
CCOC(=O)c1ccc(Oc2ccc(Cl)cc2Cl)c([N+](=O)[O-])c1 | 0.242 | 0.603
Cc1ccc(-c2nc(-c3c[nH]c4ccccc34)[nH]c2-c2ccc(C)cc2)cc1 | 0.243 | 0.618
NC(=O)/C(=N/O)C1=NC2(CCCCC2)Cc2ccccc21 | 0.248 | 0.653
Cc1c(Br)sc2ccc(Cl)cc12 | 0.247 | 0.612
COc1ccc(C(=O)[C@@H]2[C@@H](c3cccs3)C(C#N)(C#N)[C@H]3C=Cc4ccccc4N23)cc1 | 0.251 | 0.63
O=C(Nc1ccccc1)Nc1ccc(C(F)(F)F)cc1Br | 0.234 | 0.583
CCOc1ccc(S(=O)(=O)NCC23CC4CC(CC(C4)C2)C3)cc1 | 0.267 | 0.614
CC(C)(C)NC(=O)c1cc(NC(=O)C(F)(F)F)cc(NC(=O)C(F)(F)F)c1 | 0.234 | 0.605
NC(=O)C1CCN(CCC(=O)Nc2ccccc2)CC1 | 0.208 | 0.651
O=C(Nc1ccccc1)C1CCN(S(=O)(=O)c2ccc(Oc3ccccc3)cc2)CC1 | 0.251 | 0.614
CCOC(=O)C1=C(N)N(c2ccc([N+](=O)[O-])cc2)C2=C(C(=O)CCC2)C1c1ccc(C(C)(C)C)s1 (stereo unspecified) | 0.246 | 0.613
COc1ccccc1Oc1ccc(C(F)(F)F)cc1NC(=O)NC(=O)c1ccccc1F | 0.265 | 0.619
N#Cc1ncc(C(F)(F)F)cc1Oc1ccc(Cl)cc1 | 0.248 | 0.603
O=C(Nc1ccccc1)c1cc(S(=O)(=O)N2CCCc3ccccc32)cs1 | 0.225 | 0.627
COc1ccc(Cc2nnc(-c3ccc(-c4cccs4)s3)o2)cc1 | 0.258 | 0.615
Cc1nc(-c2ccccn2)nc(NCCNc2cccc(C(F)(F)F)n2)c1Cl | 0.257 | 0.626
CCCN(CCC)c1nc(C)nc2c1sc(=S)n2C | 0.265 | 0.625
O=c1[nH]cnc2c1ncn2C1OC(CCl)C(O)C1O (stereo unspecified) | 0.235 | 0.642
Nn1cnn(Cc2ccccc2)c1=O | 0.251 | 0.627
Cc1cc(C)cc(NC(=O)C(C)Sc2ccccc2)c1 (stereo unspecified) | 0.253 | 0.608

SMILES | plate-normalized OD600 growth (temperature: 15°C, 48 h) | plate-normalized OD600 growth (temperature: 37°C, 24 h)
CC(=O)c1ccc(N2CCCCC2)c(NC(S)Nc2cc(Cl)ccc2Cl)c1 (stereo unspecified) | 0.255 | 0.621
FC(F)(F)COc1nc(N/N=C/c2cccnc2)nc(N2CCCCC2c2ccccn2)n1 (stereo unspecified) | 0.24 | 0.574
COC(=O)CCC(NC(=O)c1ccccc1)C(=O)OC (stereo unspecified) | 0.247 | 0.621
COC(=O)c1ccc(C(CC(=O)c2ccccc2)Nc2ccc(C)cc2)cc1 (stereo unspecified) | 0.24 | 0.604
O=C(O)c1cccc(N2C(=O)C3C4C=CC(CC4)C3C2=O)c1 (stereo unspecified) | 0.238 | 0.613
CO/N=C(\C(=O)O)c1csc(Nc2nc(Nc3ccc(OC)cc3)nc(Nc3cc(/C(=N\OC)C(=O)O)cs3)n2)c1 | 0.248 | 0.619
COc1ccc(NC(=O)/C=C/c2cccc(Oc3ccccc3)c2)cc1 | 0.245 | 0.633
COC(=O)c1ccc(NC(=O)CCCC(=O)O)cc1 | 0.249 | 0.648
CC(=O)NC1(C(F)(F)F)NC(=O)N(Cc2ccccc2)C1=O (stereo unspecified) | 0.248 | 0.628
Cc1noc(C)c1C(=O)N1CCOCC1 | 0.27 | 0.62
C/C(=C\C(=O)Nc1ccc(F)cc1)Nc1ccc(F)cc1 | 0.253 | 0.613
CCN(CC)c1ccc(/C=N/NC(=O)COc2ccc(Cl)cc2)cc1 | 0.255 | 0.611
O=C(O)CC1=C(Nc2ccccc2)C(=O)N(c2ccccc2)C1c1ccc(Cl)cc1 (stereo unspecified) | 0.257 | 0.667
CCOC(=O)c1c(SC)[nH]c2c(C(F)(F)F)cccc2c1=O | 0.244 | 0.627
CC(C)C(C(=O)Nc1ccc(C(=O)/C=C/c2ccccn2)cc1)c1ccc(Cl)cc1 (stereo unspecified) | 0.25 | 0.667
COC(=O)c1ccc([N+](=O)[O-])cc1N | 0.249 | 0.625
Nc1nc(Sc2cc(-n3cccc3)c(Cl)cc2[N+](=O)[O-])n[nH]1 | 0.228 | 0.61
O=C(CSc1nc2ccc(N3C(=O)c4ccc([N+](=O)[O-])cc4C3=O)cc2s1)NC1CC1 | 0.254 | 0.625
Cn1c2c(c3c1CCCC3)CCCC2 | 0.232 | 0.621
Nc1cc(-c2ccccc2)nn1Cc1ccccc1 | 0.225 | 0.613
CCOC(=O)c1[nH]c(Cc2[nH]c(C(=O)OCC)c(C)c2C)c(C)c1C | 0.216 | 0.604

By substructure: those above containing a furan ring, fused or not.
SMILES | plate-normalized OD600 growth (temperature: 15°C, 48 h) | plate-normalized OD600 growth (temperature: 37°C, 24 h)
O=C(c1ccco1)N1CCC(c2ccccc2)C1 (stereo unspecified) | 0.201 | 0.642
O=C(O)/C=C/c1ccc(S(=O)(=O)NN2C(=O)/C(=C/c3ccco3)N=C2c2ccccc2)cc1 | 0.252 | 0.61

Reference: the supplement of paper PMC4371806
